## Library compounds against nucleic acid targets

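The test is a small-molecule microarray: each compound is printed twice on a reactive slide, and binding shows as fluorescence of the labelled oligonucleotide after washing. The data file lists only calls. An earlier report of the laboratory on the PreQ1, TPP and SAM-II riboswitches (doi:10.1038/s41467-019-09493-3) used 1 µM RNA for 2 h and required a mean Z-score above 3 (spot signal-to-noise against the whole library), a score well above that on a control array, and duplicate spots agreeing (coefficient of variation under 100); it then also set aside compounds that hit other targets, which this list keeps. The cut-offs behind this list may differ. These are primary screening calls, not affinities; a compound without a hit may have attached poorly or may still bind in solution.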 A compound is marked hit if it was called a hit and no hit if it was screened but was not. The compounds are a random part of those screened. A target missing from an entry has no call listed here. A dash means that no call is listed here.

Oligonucleotides screened, 5′ to 3′:
T1: TPP riboswitch RNA three-way junction, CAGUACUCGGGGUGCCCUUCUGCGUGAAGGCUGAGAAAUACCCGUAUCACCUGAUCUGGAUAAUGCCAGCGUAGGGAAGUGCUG. About 160 hits among about 24,000 compounds.
T2: SAM-II riboswitch RNA pseudoknot, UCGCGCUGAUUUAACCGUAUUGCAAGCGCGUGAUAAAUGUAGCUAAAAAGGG. About 200 hits among about 21,000 compounds.
T3: PreQ1 riboswitch RNA pseudoknot, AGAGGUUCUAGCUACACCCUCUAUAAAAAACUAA. From B. subtilis. About 170 hits among about 24,000 compounds.

With Cc1cc(N)c2cc(NC(=O)/C=C\c3ccccc3Cl)ccc2n1 the screen gave T1: no hit; T2: no hit; T3: no hit.
With O=C(Oc1ccc(NC2=NS(=O)(=O)c3ccccc32)cc1)c1ccccc1F the screen gave T1: no hit; T2: no hit; T3: no hit.
With CC(C)N1CCC(CC(=O)N(CCO)Cc2ccccc2Cl)CC1 the screen gave T1: no hit; T2: no hit; T3: no hit.
With COc1cc2c(c(OC)c1O)C(=O)CO2 the screen gave T1: no hit; T2: no hit; T3: no hit.
With Cc1cnn(CCNC2CCN(c3ncnc4sc(C)cc34)CC2)c1 the screen gave T1: no hit; T2: no hit; T3: no hit.
With Cc1cc(NCC(=O)N2CCN(c3ccccc3)CC2)n2nc(-c3cccnc3)nc2n1 the screen gave T1: no hit; T3: no hit.
With CCn1ccc(-c2nc(CCOC)nn2CCO)cc1=O the screen gave T1: no hit; T2: no hit; T3: no hit.
With COc1ccccc1-n1cc(C(=O)NC[C@@H]2C[C@H](F)CN2)cn1 the screen gave T1: no hit; T2: no hit; T3: no hit.
With Cc1cc(C)n(CC(C)NCc2cnc(-c3ccc4ccccc4c3)nc2)n1 (centres undefined) the screen gave T1: no hit; T2: no hit; T3: no hit.
With Cc1ccccc1SC1CCN(C(=O)c2cccc(CO)n2)CC1 the screen gave T1: no hit; T2: no hit; T3: no hit.
With CCOc1ccc(CNCCN2CCOCC2)cc1Cl the screen gave T1: no hit; T2: no hit; T3: no hit.
With CCC(CO)N(CCCSC)Cc1cccnc1 (centres undefined) the screen gave T1: no hit; T2: no hit; T3: no hit.
With CC(N)Cn1cnc2c(cnn2C)c1=O (centres undefined) the screen gave T1: no hit; T2: no hit; T3: no hit.
With c1ccc(-c2nn3c(c2-c2ccnc4cc(OCCN5CCOCC5)ccc24)CCC3)nc1 the screen gave T1: no hit; T2: no hit; T3: no hit.
With Nc1ccc(S(=O)(=O)c2ccc(-n3c(=O)c4cc5c(=O)n(-c6ccc(S(=O)(=O)c7ccc(N)cc7)cc6)c(=O)c5cc4c3=O)cc2)cc1 the screen gave T1: no hit; T2: no hit; T3: no hit.
With CC(C)OCCNCCC(=O)NC1CCCCC1 the screen gave T1: no hit; T2: no hit; T3: no hit.
With Clc1ccc(COc2ccccc2CNCc2ccc3c(c2)OCO3)cc1 the screen gave T1: no hit; T2: no hit; T3: no hit.
With Cc1nc(NCCc2ccccc2)c2c3c(sc2n1)CCC3 the screen gave T1: no hit; T2: no hit; T3: no hit.
With CCOc1ccccc1-c1nc(COc2cccnc2N)c(C)o1 the screen gave T1: no hit; T2: no hit; T3: no hit.
With Cc1cccc(-n2cc(-c3ccccc3)c3c(NC4CC4)ncnc32)c1 the screen gave T1: no hit; T3: no hit.
With COC(=O)c1nc(-c2ccc3c(n2)C(=O)C(N)=C(OC)C3=O)c(N)c(-c2ccc(OC)c(OC)c2O)c1C the screen gave T1: no hit; T2: no hit; T3: no hit.
With O=C(CCc1cn[nH]c1)N1CCN(CC2CCC2)CC(O)C1 (centres undefined) the screen gave T1: no hit; T2: no hit; T3: no hit.
With COc1ccc2oc(=O)c(-c3csc(N)n3)cc2c1 the screen gave T1: no hit; T2: no hit; T3: no hit.
With N[C@H]1[C@H]2CC[C@H](C2)[C@H]1C(=O)N1CCC(c2ncc[nH]2)CC1 the screen gave T1: no hit; T2: no hit; T3: no hit.
With Nc1ccc(-n2cccn2)cc1C(=O)O the screen gave T1: no hit; T2: no hit; T3: no hit.
With CC(C)Cn1cnc2c(N)nc3ccccc3c21 the screen gave T1: no hit; T2: no hit; T3: no hit.
With CNCCCn1c(=O)[nH]c2ccccc21.Cl the screen gave T1: no hit; T2: no hit; T3: no hit.
With CCN(CCCNc1nc(-c2cc(OC)ccc2OC)no1)c1ccccc1 the screen gave T1: no hit; T3: no hit.
With CCOC(=O)c1c(NCc2ccc(N(C)C)cc2)sc2c1CCCC2 the screen gave T1: no hit; T2: no hit; T3: no hit.
With CCCCSc1nc(N)cc(N2CCN(C(=O)N(C)C)CC2)n1 the screen gave T1: no hit; T2: no hit; T3: no hit.
With COc1ccc(NC(=O)c2c(N)sc3c2CCC3)cc1 the screen gave T1: no hit; T2: no hit; T3: no hit.
With COc1ccc(Cl)cc1NC(=O)c1nnn(Cc2ccc(Br)cc2F)c1N the screen gave T1: no hit; T2: no hit; T3: no hit.
With c1ccc(CNc2nc(N3CCOc4ccccc43)nc3c2CCCC3)cc1 the screen gave T1: no hit; T2: no hit; T3: no hit.
With Cc1ccc(OCc2nc3c4c5c(sc4ncn3n2)C(C)(C)NC(C)(C)C5)cc1 the screen gave T1: no hit; T2: no hit; T3: no hit.
With COc1ccc(Cn2c(C(=O)O)c(CNCC3CCCO3)c3ccc(C)cc32)cc1 (centres undefined) the screen gave T1: no hit; T3: no hit.
With OC1(CNCc2nc(Cc3cccs3)no2)CCNC1 (centres undefined) the screen gave T1: no hit; T2: no hit; T3: no hit.
With Cc1c2cnccc2c(C)c2c1c1ccccc1n2CCOC(=O)c1ccccc1 the screen gave T1: no hit; T2: no hit; T3: no hit.

For reference, 2 entries once more:

| structure | T1 | T2 | T3 |
|---|---|---|---|
| `CCOc1ccccc1-c1nc(COc2cccnc2N)c(C)o1` | no hit | no hit | no hit |
| `Cc1cccc(-n2cc(-c3ccccc3)c3c(NC4CC4)ncnc32)c1` | no hit | - | no hit |

Source: the ROBIN nucleic acid binder screens (doi:10.1002/anie.202211358).